# Paper doi:10.1101/583740 (bioRxiv, 2019)
# Amino acid sequences for entries named in this document (tags omitted). A change or cut given only in a name is not applied to a line headed by its entry.
# UniProt Q9QZC1: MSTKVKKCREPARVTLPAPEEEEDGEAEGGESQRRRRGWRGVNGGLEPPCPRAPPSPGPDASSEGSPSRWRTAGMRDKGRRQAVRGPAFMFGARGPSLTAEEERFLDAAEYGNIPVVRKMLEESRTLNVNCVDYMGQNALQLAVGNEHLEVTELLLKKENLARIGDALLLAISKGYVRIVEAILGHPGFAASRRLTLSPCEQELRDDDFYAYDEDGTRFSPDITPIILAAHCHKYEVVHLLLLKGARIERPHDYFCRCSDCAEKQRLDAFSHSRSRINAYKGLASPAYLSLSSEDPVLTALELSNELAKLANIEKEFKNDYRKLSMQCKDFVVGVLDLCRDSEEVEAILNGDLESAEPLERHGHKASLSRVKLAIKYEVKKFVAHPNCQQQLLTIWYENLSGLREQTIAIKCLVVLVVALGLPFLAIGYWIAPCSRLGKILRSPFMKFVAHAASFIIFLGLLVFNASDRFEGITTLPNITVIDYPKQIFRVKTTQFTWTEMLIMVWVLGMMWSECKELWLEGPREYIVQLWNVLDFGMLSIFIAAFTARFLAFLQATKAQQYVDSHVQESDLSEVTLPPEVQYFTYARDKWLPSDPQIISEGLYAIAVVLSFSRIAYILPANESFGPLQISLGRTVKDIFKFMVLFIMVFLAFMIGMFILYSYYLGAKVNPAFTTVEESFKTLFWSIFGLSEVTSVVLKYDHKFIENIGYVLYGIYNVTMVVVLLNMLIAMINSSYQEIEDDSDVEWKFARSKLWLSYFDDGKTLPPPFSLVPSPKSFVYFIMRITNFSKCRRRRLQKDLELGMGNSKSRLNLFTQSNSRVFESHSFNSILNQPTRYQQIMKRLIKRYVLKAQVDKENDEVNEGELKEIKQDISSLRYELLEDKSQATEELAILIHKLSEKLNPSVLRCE
# Results are given in words; binding and its absence hold for the method and conditions named.
# Target: T1, Recombinant SIRT1 (full-length) (UniProt Q923E4)
# T1 sequence: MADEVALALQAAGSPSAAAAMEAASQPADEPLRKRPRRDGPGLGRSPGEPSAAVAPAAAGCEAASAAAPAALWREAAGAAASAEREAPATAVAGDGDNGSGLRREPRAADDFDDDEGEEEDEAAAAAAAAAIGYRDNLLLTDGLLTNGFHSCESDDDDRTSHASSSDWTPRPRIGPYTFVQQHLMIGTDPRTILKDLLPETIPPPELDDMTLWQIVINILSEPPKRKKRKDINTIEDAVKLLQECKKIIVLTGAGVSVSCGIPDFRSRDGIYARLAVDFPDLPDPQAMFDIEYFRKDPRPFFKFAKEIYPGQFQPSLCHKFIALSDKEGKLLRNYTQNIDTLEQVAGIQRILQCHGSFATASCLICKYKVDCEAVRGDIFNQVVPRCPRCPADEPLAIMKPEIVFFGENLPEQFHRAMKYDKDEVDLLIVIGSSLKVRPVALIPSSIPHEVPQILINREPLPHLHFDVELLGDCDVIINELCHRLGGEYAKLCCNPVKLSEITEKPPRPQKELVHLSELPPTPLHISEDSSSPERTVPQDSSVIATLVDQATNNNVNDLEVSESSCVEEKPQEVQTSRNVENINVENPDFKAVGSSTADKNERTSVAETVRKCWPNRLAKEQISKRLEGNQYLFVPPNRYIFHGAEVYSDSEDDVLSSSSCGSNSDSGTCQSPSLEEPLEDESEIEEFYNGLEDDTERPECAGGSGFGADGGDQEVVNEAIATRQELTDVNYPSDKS
# Assay: condition: 140.2, 280.4, 560.8, 1122, 2243 μM TRPC3-N
substance,measurement,value
TRPC3-N (1-369aa) (from UniProt Q9QZC1) (domain or fragment),binding,no binding
